Laboratory results taken from PubChem BioAssay AID493014 (National Center for Advancing Translational Sciences (NCATS), 2011).
The list shows a part of the results. The main result of the screen is listed elsewhere. These columns were measured beside it and carry no call. Compounds called inactive in the main read-out are mostly missing here. The note in brackets gives the kind of curve behind each potency; many fits are weak.

Assay: qHTS Assay to Find Inhibitors of Chronic Active B-Cell Receptor Signaling
Conditions: ABC-DLBCL IkBa-CBG/CBR reporter, luminescence ratio (green luciferase fused to IkBa over red control in TMD8 lymphoma cells), 4 h
Procedure, shortened: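 Concentration-response series (up to 46 uM) were applied to TMD8 dual-reporter cells for 4 h at 37C with doxycycline. Green/red ratio, after filter-overlap correction, defined %Activity; red signal alone was normalised to basal cells and zero luminescence.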

[1] = measured here: CBR red luminescence, cell number
[2] = measured here: IkBa-CBG green luminescence

| SMILES | AC50 [1] | AC50 [2] |
| --- | --- | --- |
| CCn1cc(C2=NC(c3ccccc3)CO2)c2ccccc21 (stereo not given) | 2.91 µM [rising, partial curve, poor fit] | – |
| CCOc1ccccc1C1C(C(=O)Nc2ccccc2OC)=C(C)Nc2nnnn21 (stereo not given) | 32.6 µM [falling, single point] | – |
| COc1ccc(C#Cc2c(-c3ccccc3)n(C)c3ccccc23)cc1 | 0.517 µM [falling, partial curve, poor fit] | – |
| O=C1N[C@@H](Cc2ccccc2)COC(=O)[C@H](Cc2ccc(F)cc2)C/C=C\C[C@H]1CC(=O)N(CCO)Cc1ccccc1 | 20.6 µM [falling, partial curve, poor fit] | – |
| C[C@H]1CN([C@@H](C)CO)C(=O)c2cccc(NC(=O)Nc3ccc(C(F)(F)F)cc3)c2O[C@@H]1CN(C)S(=O)(=O)c1ccc(Cl)cc1 | 20.6 µM [falling, partial curve] | – |
| O=C(Nc1ccc(N2CCN(c3ncccc3C(F)(F)F)CC2)nc1)c1cccs1 | 35.5 µM [falling, single point] | 35.5 µM [rising, partial curve, poor fit] |
| CCOc1nnnc2c1sc1nc(N3CCOCC3)c3c(c12)CCCC3 | 32.6 µM [falling, single point] | – |
| O=C(c1cc(C(=O)N2CCOCC2)c2nc3ccccc3n2c1)c1ccccc1O | 7.08 µM [rising, partial curve, poor fit] | – |
| O=C(COc1cccc(Br)c1)Nc1ccc(N2CCOCC2)cc1N1CCOCC1 | 25.9 µM [rising, single point] | – |
| COCCN=C1N[C@@H](c2cccc(C(F)(F)F)c2)C(C(=O)OC)=C(C)N1Cc1ccccc1 | 35.5 µM [falling, single point] | – |
| CN(C)c1cccc(C(=O)NCc2ccccc2Cl)c1 | 20 µM [falling, partial curve, poor fit] | – |
| COc1ccc(-c2cc(C(=O)N3CCCCC3)no2)cc1OC | 1.41 µM [rising, partial curve] | – |
| COc1ccc2cc3c(N)nn(C(=O)Cc4ccccc4OC)c3nc2c1 | – | 16.4 µM [rising, partial curve, poor fit] |
| O=C(NCc1ccco1)C1CC(c2cccc([N+](=O)[O-])c2)=NO1 (stereo not given) | 14.1 µM [falling, single point] | – |
| Cc1ccc(C(=O)NCC(=O)N(C)Cc2cccc(F)c2)s1 | 29.1 µM [falling, single point] | – |
| O=C(N/N=C/c1ccc(OC(=O)c2cccs2)cc1)c1ccc(F)cc1 | 22.4 µM [falling, single point] | – |
| COC(=O)c1ccc(NC(=O)Nc2ccccc2C)cc1 | 2.51 µM [falling, partial curve, poor fit] | – |
| COc1ccc(NC(=O)c2nc(C)c(C3(C)CC(c4ccccc4)=NO3)s2)cc1 (stereo not given) | 8.91 µM [rising, partial curve] | 20 µM [falling, single point] |
| COc1ccc(-c2nc(C)ncc2-c2ccc(Cl)cc2)c(O)c1 | 14.1 µM [falling, single point] | – |
| C(=N\N1CCN(c2ccccc2)CC1)/c1ccccc1 | 12.6 µM [rising, partial curve, poor fit] | – |
| CCCCOc1ccc(-c2nnc(-c3ccco3)o2)cc1 | 11.2 µM [rising, partial curve, poor fit] | – |

| SMILES | AC50 [1] | AC50 [2] |
| --- | --- | --- |
| Cc1c(CCC(=O)O)c(=O)n2c([nH]c3ccccc32)c1C#N | 0.103 µM [falling, full curve] | – |
| Cc1cc(C)cc(NC(=O)C2CCCN(c3nccc(C)n3)C2)c1 (stereo not given) | 23.1 µM [falling, partial curve, poor fit] | – |
| O=C1C=C(c2ccc3c(c2)oc2ccccc23)C[C@@H](c2ccc3c(c2)OCO3)C1 | 0.651 µM [rising, full curve, poor fit] | – |
| COc1ccc(CCNC(=O)CCCCCN2C(=O)[C@@H]3Cc4ccccc4CN3C2=O)cc1OC | 2.82 µM [falling, partial curve, poor fit] | – |
| Cc1ccc(NC(=O)C2CCCCC2)cc1C | 18.4 µM [rising, partial curve, poor fit] | – |
| CCOC(=O)c1cc2cc3ccccc3cc2oc1=O | 0.562 µM [rising, full curve] | – |
| O=C(N/N=C/c1ccccc1)c1cc(=O)[nH]c2ccccc12 | 9.2 µM [rising, partial curve] | – |
| CCc1ccc(S(=O)(=O)/N=C2\C=C(NS(=O)(=O)c3ccccc3)C(=O)c3ccccc32)cc1 | 7.08 µM [falling, partial curve, poor fit] | – |
| Cc1cccc(NC(=O)c2cc(NC(=O)c3ccco3)ccc2Cl)n1 | – | 10.3 µM [falling, partial curve, poor fit] |
| CCC(=O)c1cn(CC(=O)Nc2cccc(C)c2)c2ccccc12 | 14.1 µM [rising, single point] | – |
| CCOC(=O)N1CCC(N2CCCC(CO)(Cc3cccc(Cl)c3)C2)CC1 (stereo not given) | 35.5 µM [falling, single point] | – |
| C=CCNC(=O)c1cc2cccc(OC)c2oc1=O | 11.2 µM [falling, partial curve] | – |
| O=c1oc2ccccc2c(O)c1C=Nc1cccnc1 | 8.91 µM [falling, partial curve] | – |
| Cc1ccccc1NC(=O)CSC1=C(C#N)C(c2ccsc2)CC(=O)N1 (stereo not given) | 16.4 µM [falling, partial curve, poor fit] | – |
| O=C(Nc1nccs1)c1cc(-c2ccncc2)nc2ccccc12 | 0.708 µM [falling, full curve] | – |
| COc1ccc(-c2noc(CN3CCOCC3)n2)cc1OC | 18.4 µM [falling, partial curve, poor fit] | – |
| COc1cc(Cl)ccc1OCc1cc(C(=O)N2CCCCCCC2)no1 | 2 µM [rising, partial curve, poor fit] | – |
| O=[N+]([O-])C1C(c2ccccc2)=NOC1c1ccccc1O (stereo not given) | 7.08 µM [falling, partial curve] | – |
| C=CCn1c(Cc2cccc3ccccc23)n[nH]c1=S | – | 29.1 µM [falling, single point] |
| COC(=O)COC(=O)c1ccc(-n2nnnc2SC)cc1 | 32.6 µM [falling, single point] | – |
| Cc1ccc(S(=O)(=O)N/N=C\c2ccc([N+](=O)[O-])o2)cc1 | 20.6 µM [rising, single point] | – |

Some of the entries above, set out differently:
SMILES | AC50 [1] | AC50 [2]
C=CCNC(=O)c1cc2cccc(OC)c2oc1=O | 11.2 µM [falling, partial curve] | –
O=c1oc2ccccc2c(O)c1C=Nc1cccnc1 | 8.91 µM [falling, partial curve] | –
Cc1ccccc1NC(=O)CSC1=C(C#N)C(c2ccsc2)CC(=O)N1 (stereo not given) | 16.4 µM [falling, partial curve, poor fit] | –
O=C(Nc1nccs1)c1cc(-c2ccncc2)nc2ccccc12 | 0.708 µM [falling, full curve] | –

Remaining list, next part

| SMILES | AC50 [1] | AC50 [2] |
| --- | --- | --- |
| Cc1nc2ccc(C(=O)O)cc2[nH]1 | 18.4 µM [falling, single point] | – |
| COc1cc(C(=O)N/N=C/c2cn(Cc3cccc(F)c3)c3ccccc23)ccc1O | 11.2 µM [falling, partial curve] | – |
| O=S(=O)(Cc1cc(Cl)nc(-c2ccncc2)n1)c1ccccc1 | 0.631 µM [falling, full curve, poor fit] | – |
| Cc1ncc(CN2CCCC(C(=O)Nc3ccc(-c4cscn4)cc3)C2)cn1 (stereo not given) | 7.08 µM [falling, partial curve] | – |
| CCCn1c(SCC(=O)N(C)CC(=O)Nc2ccc(C)cc2)n[nH]c1=O | 29.1 µM [rising, single point] | – |
| COc1ccc(CN2C(=O)CN=C2Nc2cc(C)ccc2C)cc1 | 3.66 µM [rising, single point] | – |
| CNC(=O)c1ccc(Nc2nnc(-c3ccc(O)cc3)c3ccccc23)cc1 | 20 µM [falling, single point] | – |
| COc1cccc(OC)c1C(=O)N1CCN(Cc2ccccc2C(F)(F)F)CC1 | 18.4 µM [falling, partial curve, poor fit] | – |
| CCC(=O)c1ccc(OCc2ccc(C(=O)OC)cc2)c(OC)c1 | 6.31 µM [falling, single point] | – |
| Cc1ccc(NCN2C(=O)C3CC=CCC3C2=O)cc1 (stereo not given) | 29.1 µM [rising, single point] | – |
| CSc1cccc(NC(=S)N(CCCN2CCCC2)Cc2cccn2Cc2ccc(Cl)cc2)c1 | 0.562 µM [falling, full curve] | – |
| O=C(COc1cccc(Br)c1)Nc1ccc(Cl)c(S(=O)(=O)N2CCOCC2)c1 | 32.6 µM [falling, single point] | – |
| CCn1nc(C)c(CNC(=O)c2cc(COc3ccc(F)cc3Cl)on2)c1C | 0.447 µM [rising, full curve, poor fit] | – |
| Cc1cccc(-n2c(=O)[nH]c3c(C(N)=O)nc(C(C)C)nc32)c1 | 8.2 µM [rising, partial curve, poor fit] | – |
| Cc1cccc(C)c1NC(=O)CSc1nc2ccccc2c(=O)[nH]1 | 0.259 µM [rising, full curve, poor fit] | – |
| CC(C)n1cnc2c(NCc3ccccc3)nc(NCc3ccccc3)nc21 | 17.8 µM [falling, single point] | – |
| COC(=O)c1cc(C)sc1NC(=O)CCCC(=O)O | 25.9 µM [rising, partial curve, poor fit] | – |
| Cc1ccc(OCc2ccc(C(=O)Nc3ccc(C(N)=O)cc3)o2)c([N+](=O)[O-])c1 | 2.82 µM [rising, partial curve, poor fit] | – |
| COCC(=O)NNC(=O)Cc1ccc(Cl)cc1 | 35.5 µM [rising, single point] | – |
| O=C(COC(=O)c1cc(S(=O)(=O)N2CCCCC2)ccc1N1CCOCC1)c1ccccc1 | 5.8 µM [rising, single point] | – |
| Cn1c(NNC(=O)C(c2ccccc2)c2ccccc2)cc(=O)n(C)c1=O | 10 µM [falling, partial curve, poor fit] | – |
